Reference: PubChem BioAssay AID1259308 (NCATS, 2017)

- Test: 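Genes whose loss raises luciferase production in HEK293 cells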 (primary screen)
- Cell system: human HEK293 embryonic kidney cells stably expressing firefly luciferase (HEK-CMV-Luc2-Hygro)
- Knock-down reagent: single siRNA against human genes, 0.8 pmol siRNA per well
- Duration: 72 h
- Measured: 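Reporter luminescence and viable-cell signal on separate replicate plates, given as percent of non-targeting control and median/MAD z-scores, plus per-cell luciferase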
- Scale: total luciferase, z-score and total luciferase, % of control: higher = more reporter protein produced
- Call rule: 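An siRNA counts as active if its total luciferase robust z-score exceeds 3; genes with two or more such siRNAs out of three were retested with fresh siRNAs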
- Meaning of the calls: active = raised luciferase; inactive = no rise
This is one part, drawn at random, of about 59,000 reagents tested. About 1,510 of all reagents (2.6%) were called active. 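Calls use total luciferase alone and ignore viability, so some active siRNAs may act by altering cell number.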 The numbers tell different reagents against one gene apart. Not all columns of the deposit are shown.

KIDINS220 (GeneID 57498) #1
- total luciferase, z-score: 0.0863
- total luciferase, % of control: 83.6
- activity call: inactive

KIDINS220 (GeneID 57498) #2
- total luciferase, z-score: -0.1
- total luciferase, % of control: 79.9
- activity call: inactive

KIDINS220 (GeneID 57498) #3
- total luciferase, z-score: 0.746
- total luciferase, % of control: 96.7
- activity call: inactive

NFASC (GeneID 23114) #1
- total luciferase, z-score: -0.75
- total luciferase, % of control: 67
- activity call: inactive

NFASC (GeneID 23114) #2
- total luciferase, z-score: 0.209
- total luciferase, % of control: 86
- activity call: inactive

NFASC (GeneID 23114) #3
- total luciferase, z-score: -0.763
- total luciferase, % of control: 66.7
- activity call: inactive

C11orf86 (GeneID 254439) #1
- total luciferase, z-score: -1.75
- total luciferase, % of control: 47.1
- activity call: inactive

C11orf86 (GeneID 254439) #2
- total luciferase, z-score: 0.0344
- total luciferase, % of control: 82.6
- activity call: inactive

C11orf86 (GeneID 254439) #3
- total luciferase, z-score: 0.292
- total luciferase, % of control: 87.7
- activity call: inactive

FAM162B (GeneID 221303) #1
- total luciferase, z-score: -2.15
- total luciferase, % of control: 39.1
- activity call: inactive

FAM162B (GeneID 221303) #2
- total luciferase, z-score: 0.0335
- total luciferase, % of control: 82.6
- activity call: inactive

FAM162B (GeneID 221303) #3
- total luciferase, z-score: -1.38
- total luciferase, % of control: 54.4
- activity call: inactive

NTN1 (GeneID 9423) #1
- total luciferase, z-score: -1.17
- total luciferase, % of control: 58.6
- activity call: inactive

NTN1 (GeneID 9423) #2
- total luciferase, z-score: -0.765
- total luciferase, % of control: 66.7
- activity call: inactive

NTN1 (GeneID 9423) #3
- total luciferase, z-score: 0.533
- total luciferase, % of control: 92.5
- activity call: inactive

LIPC (GeneID 3990) #1
- total luciferase, z-score: 1.55
- total luciferase, % of control: 113
- activity call: inactive

LIPC (GeneID 3990) #2
- total luciferase, z-score: 0.777
- total luciferase, % of control: 97.3
- activity call: inactive

LIPC (GeneID 3990) #3
- total luciferase, z-score: 1.1
- total luciferase, % of control: 104
- activity call: inactive

FOLR3 (GeneID 2352) #1
- total luciferase, z-score: -0.571
- total luciferase, % of control: 70.5
- activity call: inactive

FOLR3 (GeneID 2352) #2
- total luciferase, z-score: -0.118
- total luciferase, % of control: 79.5
- activity call: inactive

FOLR3 (GeneID 2352) #3
- total luciferase, z-score: -0.0247
- total luciferase, % of control: 81.4
- activity call: inactive

ZKSCAN1 (GeneID 7586) #1
- total luciferase, z-score: 3.23
- total luciferase, % of control: 146
- activity call: active

ZKSCAN1 (GeneID 7586) #2
- total luciferase, z-score: 1.67
- total luciferase, % of control: 115
- activity call: inactive

ZKSCAN1 (GeneID 7586) #3
- total luciferase, z-score: -0.238
- total luciferase, % of control: 77.1
- activity call: inactive

LIPM (GeneID 340654) #1
- total luciferase, z-score: 0.325
- total luciferase, % of control: 88.4
- activity call: inactive

LIPM (GeneID 340654) #2
- total luciferase, z-score: 0.228
- total luciferase, % of control: 86.4
- activity call: inactive

LIPM (GeneID 340654) #3
- total luciferase, z-score: 1.49
- total luciferase, % of control: 112
- activity call: inactive

LINC00607 (GeneID 646324) #1
- total luciferase, z-score: -1.42
- total luciferase, % of control: 53.6
- activity call: inactive

LINC00607 (GeneID 646324) #2
- total luciferase, z-score: -1.24
- total luciferase, % of control: 57.3
- activity call: inactive

LINC00607 (GeneID 646324) #3
- total luciferase, z-score: 0.098
- total luciferase, % of control: 83.8
- activity call: inactive

RBM25 (GeneID 58517) #1
- total luciferase, z-score: -1.69
- total luciferase, % of control: 48.3
- activity call: inactive

RBM25 (GeneID 58517) #2
- total luciferase, z-score: -0.603
- total luciferase, % of control: 69.9
- activity call: inactive

RBM25 (GeneID 58517) #3
- total luciferase, z-score: -0.371
- total luciferase, % of control: 74.5
- activity call: inactive

Targets above whose target name starts with C or c (3):
C11orf86 (GeneID 254439) #1
- total luciferase, z-score: -1.75
- total luciferase, % of control: 47.1
- activity call: inactive

C11orf86 (GeneID 254439) #2
- total luciferase, z-score: 0.0344
- total luciferase, % of control: 82.6
- activity call: inactive

C11orf86 (GeneID 254439) #3
- total luciferase, z-score: 0.292
- total luciferase, % of control: 87.7
- activity call: inactive
